According to PMC8363623:
These are yes or no findings as the source states them, for the method shown. A result given as binding can be weak or reduced; the word gives no strength. For some assays here: Tags and fused reporters may be left off the sequences shown. For some assays here: In cells and extracts the contact can be indirect.

By UniProt entry, the sequences of proteins in these tests, tags left out. Where a name states a change or a piece, a line headed by the entry shows the natural chain unless it says otherwise.
UniProt Q12066: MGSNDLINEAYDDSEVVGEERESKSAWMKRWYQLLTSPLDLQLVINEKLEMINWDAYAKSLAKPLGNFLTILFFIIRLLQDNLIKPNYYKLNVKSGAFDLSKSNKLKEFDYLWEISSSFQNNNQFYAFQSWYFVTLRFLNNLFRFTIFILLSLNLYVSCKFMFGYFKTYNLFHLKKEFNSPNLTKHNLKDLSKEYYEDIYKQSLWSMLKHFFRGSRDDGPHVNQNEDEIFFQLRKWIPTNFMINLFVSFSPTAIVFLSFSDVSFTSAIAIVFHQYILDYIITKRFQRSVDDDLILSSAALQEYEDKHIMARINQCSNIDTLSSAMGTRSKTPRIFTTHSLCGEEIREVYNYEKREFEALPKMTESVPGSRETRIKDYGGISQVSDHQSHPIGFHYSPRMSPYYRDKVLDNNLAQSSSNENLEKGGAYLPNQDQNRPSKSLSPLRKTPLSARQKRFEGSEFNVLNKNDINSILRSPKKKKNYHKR

Columns and labels:
[1] = target: GFP-tagged SUMO^Q95P (S. cerevisiae) [SUMO: Q12306]; test: co-IP; yeast cell lysates (50 mM Tris pH 7.5, 150 mM NaCl, 10% glycerol, 1 mM EDTA, 0.5% NP-40) on antiHA-sepharose, GFP-Trap or IgG-agarose beads, 1.5 h at 4 °C, immunoblot; cells also with cdc14-3 at 37 °C, phosphatase inhibitors, Net1 depletion, nur1Pmim, SUMO overexpression (WT, FAIA, KRall), Cdc48 mutants, STUbL deletions or I-PpoI rDNA damage
[2] = target: Nur1 C (C-terminal Nur1 region, two-hybrid fusion) (S. cerevisiae) (UniProt Q12066); test: two-hybrid; Gal4 AD (pGADT7) and BD (pGBKT7) fusions in PJ69a, or Y187 mated with Y2HGold; spotting on -LW and on -LWH, -LWH + 1 mM 3-aminotriazol, -LWHA, 3 days unless indicated

B1: Slx5 (protein, UniProt P32828 1-619)
chain: MHSDTNGRTKSNNSPSDNNPNETVILIDSDKEEDASIREANLPVRLYPDRRVGRRRDALNRFVRSDSRSRNSQRTHITASSERPDFQANNDDITIIREVGRFFGDDGPIDPSAHYVDLDQEPGSETLETPRTIQVDNTNGYLNDNGNNNESDDGLTIVEERTTRPRVTLNLPGGERLEVTATTTDIPIRRSFEFQEDLGASRRQLLRRSATRARNLFVDRSDENDEDWTDDTHNLPEAIQRARRESRMRMSRRIAERQRRVQQQRVSSDENISTSIRLQSIRERIQSYTPDIRSAFHRAESLHEFRSILQNVAPITLQECEEELMALFTEFRNQLLQNWAIDRVRNTQEEALRLHREALERQERTAGRVFHRGTLRESITNYLNFNGEDGFLSRLWSGPALSDADEERHTQNIIDMIQEREERERDVVMKNLMNKTRAQQEEFEARAASLPEGYSASFDTTPKMKLDITKNGKEETIIVTDDDLAKTLEDIPVCCLCGAELGVGIPDDFTGISQKDRGVSFEGLVSKYKFHCPYQTLARPSMLDRDLSKRTFIASCGHAFCGRCFARIDNAKKKSKMPKKKLAQLKGSAHPDNYGPKLCPADSCKKLIRSRGRLKEVYF
B1 was tested, and the binding [1] was “binds”.

B2: Cdc14 (two-hybrid fusion) (enzyme, UniProt Q00684 1-551)
chain: MRRSVYLDNTIEFLRGRVYLGAYDYTPEDTDELVFFTVEDAIFYNSFHLDFGPMNIGHLYRFAVIFHEILNDPENANKAVVFYSSASTRQRANAACMLCCYMILVQAWTPHQVLQPLAQVDPPFMPFRDAGYSNADFEITIQDVVYGVWRAKEKGLIDLHSFNLESYEKYEHVEFGDFNVLTPDFIAFASPQEDHPKGYLATKSSHLNQPFKSVLNFFANNNVQLVVRLNSHLYNKKHFEDIGIQHLDLIFEDGTCPDLSIVKNFVGAAETIIKRGGKIAVHCKAGLGRTGCLIGAHLIYTYGFTANECIGFLRFIRPGMVVGPQQHWLYLHQNDFREWKYTTRISLKPSEAIGGLYPLISLEEYRLQKKKLKDDKRVAQNNIEGELRDLTMTPPSNGHGALSARNSSQPSTANNGSNSFKSSAVPQTSPGQPRKGQNGSNTIEDINNNRNPTSHANRKVVIESNNSDDESMQDTNGTSNHYPKVSRKKNDISSASSSRMEDNEPSATNINNAADDTILRQLLPKNRRVTSGRRTTSAAGGIRKISGSIKK
For B2, the binding [2] was “binds”.
